Assay results taken from paper PMC7918451.

Target: T1, Interleukin-6 (IL-6) (UniProt P08505)
T1 sequence (looked up, limits assumed): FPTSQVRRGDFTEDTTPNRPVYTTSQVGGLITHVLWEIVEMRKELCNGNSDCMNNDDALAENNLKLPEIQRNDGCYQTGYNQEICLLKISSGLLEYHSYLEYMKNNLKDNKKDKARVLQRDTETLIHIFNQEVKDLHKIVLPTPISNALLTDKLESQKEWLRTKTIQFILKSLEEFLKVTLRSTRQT
Test: GFET (graphene field-effect transistor), shift of charge neutrality point
Conditions: 1, 10, 100 nM IL-6, no significant shift; pyrene tag by same one-step protocol; 0.01x PBS with 2 mM MgCl2, pH ~7.4 (or adjusted to ~3.64), 10 min exposure per concentration, temperature not stated; aptamer immobilized on graphene; single-stranded DNA

ATCAGGGCTAAAGAGTGCAGAGTTACTTAG [random sequence (scramble) aptamer, pyrene-tagged]
binding result: no binding

No signal at the amounts used counts as a negative. Tags and fusion partners may be left off the protein sequences shown.
